{"source": "paper PMC10457348", "target": "T1, Duffy antigen receptor for chemokines (DARC) on Duffy positive (Fy+) human red blood cells (human (endogenous in red blood cells)) (UniProt Q16570)", "T1 sequence": "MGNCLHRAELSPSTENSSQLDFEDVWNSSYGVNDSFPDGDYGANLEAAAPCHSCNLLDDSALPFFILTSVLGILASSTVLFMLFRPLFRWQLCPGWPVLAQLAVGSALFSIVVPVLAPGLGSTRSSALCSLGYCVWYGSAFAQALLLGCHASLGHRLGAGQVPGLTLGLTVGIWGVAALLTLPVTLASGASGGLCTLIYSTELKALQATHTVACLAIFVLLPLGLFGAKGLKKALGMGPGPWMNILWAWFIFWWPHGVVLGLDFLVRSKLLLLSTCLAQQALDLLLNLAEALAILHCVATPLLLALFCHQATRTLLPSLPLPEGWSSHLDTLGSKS", "experiment": "erythrocyte binding assay; 1 x 10^8 human RBCs (Fy+ or Fy-) with 1 ug PvDBPII in RPMI 1640, 10% FBS, 45 min, room temperature; spun through silicone/nujol oil; bound protein eluted with 300 mM NaCl and detected by Western blotting; only the binder purified", "note": "These are yes or no findings as the source states them, for the method shown. Some entries that bind do so weakly or less than the wild type."}
{"substance": "Recombinant Plasmodium vivax Duffy Binding Protein region II, variant Salvador I (PvDBPII SalI) (from UniProt P22290 211-525) (domain or fragment)", "values": [{"measurement": "binding", "result": "binds"}]}
